Read-outs that look alike come from different tables or passages of the source. These are yes or no findings as the source states them, for the method shown. Binding seen in cells or lysates may run through a third protein. Here binding means that the protein was enriched with, or labelled near, the bait; the list need not be complete. For some of these results: A no says only that the protein was not detected with the bait. Sequences can lack the tags named with a protein.
T1: 3xflag-sfGFP-eIF4E1b (zebrafish) (zebrafish) (UniProt Q9PW28)
T1 sequence: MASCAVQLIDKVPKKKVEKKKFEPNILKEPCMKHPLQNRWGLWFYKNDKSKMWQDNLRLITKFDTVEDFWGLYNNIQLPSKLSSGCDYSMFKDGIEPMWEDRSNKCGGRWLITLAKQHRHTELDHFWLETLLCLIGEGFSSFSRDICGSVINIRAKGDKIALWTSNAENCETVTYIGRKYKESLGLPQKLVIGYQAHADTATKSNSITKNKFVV

Chains of the proteins cited; added tags and fusions are not shown.
UniProt Q803B9: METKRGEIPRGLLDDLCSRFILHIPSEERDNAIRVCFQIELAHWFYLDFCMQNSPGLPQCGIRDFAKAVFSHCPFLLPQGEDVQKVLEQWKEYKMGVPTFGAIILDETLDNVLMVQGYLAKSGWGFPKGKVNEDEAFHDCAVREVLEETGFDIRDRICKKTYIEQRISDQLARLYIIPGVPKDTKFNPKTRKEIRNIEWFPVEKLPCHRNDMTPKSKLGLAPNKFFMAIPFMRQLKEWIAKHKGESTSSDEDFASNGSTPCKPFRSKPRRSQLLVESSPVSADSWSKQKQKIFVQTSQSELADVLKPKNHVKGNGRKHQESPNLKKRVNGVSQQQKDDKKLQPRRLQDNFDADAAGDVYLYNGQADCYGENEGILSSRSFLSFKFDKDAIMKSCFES
UniProt A0ACM8QBM4: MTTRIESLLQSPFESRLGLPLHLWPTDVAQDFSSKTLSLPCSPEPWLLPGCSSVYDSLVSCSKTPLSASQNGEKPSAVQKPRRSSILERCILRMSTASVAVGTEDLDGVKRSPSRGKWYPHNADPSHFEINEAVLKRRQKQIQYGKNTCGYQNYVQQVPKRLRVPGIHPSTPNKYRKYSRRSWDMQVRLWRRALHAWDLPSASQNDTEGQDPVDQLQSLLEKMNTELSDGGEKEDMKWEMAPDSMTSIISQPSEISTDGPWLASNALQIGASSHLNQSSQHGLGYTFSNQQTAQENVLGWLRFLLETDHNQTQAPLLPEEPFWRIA


How the values were obtained:
[1] = molecular target: T1, 3xflag-sfGFP-eIF4E1b (zebrafish) (zebrafish); test: affinity purification with mass spectrometry
[2] = molecular target: T1, 3xflag-sfGFP-eIF4E1b (zebrafish) (zebrafish); test: affinity purification with mass spectrometry; remark: listed apart in the source

| Molecule | binding [1] | binding [2] |
| --- | --- | --- |
| eIF4ENIF1 (zebrafish, endogenous) | binds | binds |
| SLBP (zebrafish, endogenous) | binds |  |
| Edc4 (zebrafish, endogenous) (protein, UniProt Q1LUT1 1-1384) MASSSSMDIEGATQHLRDILKLDRPGNSAEASLVESQRKPSFNGELNGVLGSDLMGAAMVEPTVHNSDKLNGQDTQTICLSGDDGSICVPIRANIVEIVSSRDSSIDSKARGSNKVKIQPVAKYDWEHKYYYGNLIAVSNTYLAYAIRGANNHSMIRVLHLSSTERSLLKGFTGAVTDLAFAHLDSTLLGCVDEAGNMFIWQLTSHSSKIQDEVIVHIRRPEDTPLNSNRRLIWCPFIPEDNDESPEDACQTLALLHEDRAEVWDLDILRSNNSSWPVDATELKEGFITIRGHAARISEGALSPDGTVLATASHDGYVKFWQIYIEGQDQPRCLHEWQPHNGQPLSCLLFCDNHKKQDPDVPFWRFLITGADQNQELKMWCTVSWTCLQTIRFSPDPFNCGVLPSLKASLDLSAEFLILSDVQRKVLYVMELLQDQEKGRASFTAVSEFLLTHPVLSFGVQDVSRARLRHTEVLPPEEESESMTAEGNQGTSESRSGIQIKLYCVHTKSLQDVQIWFQPNQGDSSSLFMPQSGSQDGFSFSDPLADLNVEAMSSDKESGDSGSQNDLSKILPLPSPADFMSPAPSALPKLMTPDAFMTPSASMPASPGSSASSLTIVTAMSSSDSGARGGDDLTQSPKMSVECVNSSFANAGSPRSNSILISGLGENIQVSPPNPPLSLDLQAIDPMVVPQASPTRARSPDVISSASTAMSQDIPEIASETLQRGLSGANADSGPILHSDSMASAASILHLLSPRARSSAEHSLLPLELGAASVDGEQRLSNTPSLLETALSQENAGAAGGSCSDSSVNHAWPAAPDITRETRNSLRDNGLGDCSREEIKDRHISSPYHRRTYHLTQNDSQDASAEQSDHDDEVASLASSSGNCGPRSSHRLPVKDWKTSPRSSPKLKRKSKKDEGESSQSRQIESQMSTEVQDELLQMLRSQQREIAELRQNQLDLLQRVTSHMDAVQSSMMAHIEHAMLAQQEQEQRRMERILVEGQSRNQQLQDQLVQQLVQTLNNSLCNRLEKVLREEMKKTVPQTISKSLEPVTGQMNSTIAAKLTAVEGALKENVTKVVKSKNTTDAIGRAAAEAMQGPIQAAYKETFQSIVLPVFERGCQSMFQQINDSFKQGTNEYIQQLETHIKNRKQRDQDTRDPVIGQLQQMIDSLQSSQDQLASTVTASVSSDVQHQLHMIVGNLQDSILTQVQRIVKGEVSLAMKEQQAAVTSSIMQAMRSAAGTPVPSAHLDYQAQQASILQLLQQGQLNEAFQQALSAADLNLVLYVCETIDSQQVFGQQPCPLHQAVLLSLIQQLSTNLSTRTELKISYLEDAVMNLDHGDPVTRDHMSAVLTQVRQKLFLFLQQDAHSPMSKRARRLMMMLQGLVNH | no binding |  |

Now from value to molecule:

| binding [1] | binding [2] | Molecule |
| --- | --- | --- |
| no binding |  | Dcp2 (zebrafish, endogenous) (from UniProt Q803B9 1-397) |
| binds |  | SLBP2 (zebrafish, endogenous) (from UniProt A0ACM8QBM4 1-326) |
| no binding |  | Dcp1 (zebrafish, endogenous) |

Source: doi:10.1101/2023.06.10.544440
